{
  "sequences": {"note": "Sequences of proteins named here, by UniProt entry; tags and fusion partners are left off. A change or cut given only in a name is not applied to a line headed by its entry.", "UniProt Q8TCY9": "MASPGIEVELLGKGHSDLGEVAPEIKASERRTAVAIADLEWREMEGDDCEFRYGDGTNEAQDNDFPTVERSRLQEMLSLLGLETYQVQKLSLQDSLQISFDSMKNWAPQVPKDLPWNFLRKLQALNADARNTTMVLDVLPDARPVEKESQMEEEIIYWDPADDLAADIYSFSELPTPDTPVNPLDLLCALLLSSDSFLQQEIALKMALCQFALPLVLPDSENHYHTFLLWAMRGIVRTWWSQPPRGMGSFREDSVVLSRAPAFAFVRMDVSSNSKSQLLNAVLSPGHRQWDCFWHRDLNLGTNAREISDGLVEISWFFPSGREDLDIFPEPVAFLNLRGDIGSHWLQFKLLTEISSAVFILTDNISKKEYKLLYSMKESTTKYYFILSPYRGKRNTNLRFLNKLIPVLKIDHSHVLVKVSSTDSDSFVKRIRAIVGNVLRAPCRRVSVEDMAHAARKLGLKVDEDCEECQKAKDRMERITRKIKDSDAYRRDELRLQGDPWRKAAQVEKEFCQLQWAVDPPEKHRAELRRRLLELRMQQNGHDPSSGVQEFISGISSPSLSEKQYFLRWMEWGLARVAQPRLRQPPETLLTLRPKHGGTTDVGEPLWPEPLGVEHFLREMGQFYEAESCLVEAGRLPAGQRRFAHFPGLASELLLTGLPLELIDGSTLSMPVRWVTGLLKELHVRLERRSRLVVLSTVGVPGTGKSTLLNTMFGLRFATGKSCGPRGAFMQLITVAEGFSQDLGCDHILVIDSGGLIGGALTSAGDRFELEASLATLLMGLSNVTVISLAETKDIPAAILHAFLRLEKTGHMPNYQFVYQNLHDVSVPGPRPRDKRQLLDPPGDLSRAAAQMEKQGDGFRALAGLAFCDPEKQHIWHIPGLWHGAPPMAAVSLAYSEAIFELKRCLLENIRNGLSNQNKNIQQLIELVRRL", "UniProt Q92784, whole entry": "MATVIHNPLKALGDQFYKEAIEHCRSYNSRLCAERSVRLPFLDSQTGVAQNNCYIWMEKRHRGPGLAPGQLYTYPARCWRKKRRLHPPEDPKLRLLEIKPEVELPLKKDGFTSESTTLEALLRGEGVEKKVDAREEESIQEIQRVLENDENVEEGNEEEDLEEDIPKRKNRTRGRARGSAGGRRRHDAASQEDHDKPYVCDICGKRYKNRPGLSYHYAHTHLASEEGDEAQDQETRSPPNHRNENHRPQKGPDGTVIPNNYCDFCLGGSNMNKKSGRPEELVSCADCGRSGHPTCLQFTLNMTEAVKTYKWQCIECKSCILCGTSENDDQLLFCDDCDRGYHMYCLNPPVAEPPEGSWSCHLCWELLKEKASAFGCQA", "UniProt Q8TCD1": "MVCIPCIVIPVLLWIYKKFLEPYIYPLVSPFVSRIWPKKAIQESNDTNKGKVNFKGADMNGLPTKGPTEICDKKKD", "UniProt Q96AB6": "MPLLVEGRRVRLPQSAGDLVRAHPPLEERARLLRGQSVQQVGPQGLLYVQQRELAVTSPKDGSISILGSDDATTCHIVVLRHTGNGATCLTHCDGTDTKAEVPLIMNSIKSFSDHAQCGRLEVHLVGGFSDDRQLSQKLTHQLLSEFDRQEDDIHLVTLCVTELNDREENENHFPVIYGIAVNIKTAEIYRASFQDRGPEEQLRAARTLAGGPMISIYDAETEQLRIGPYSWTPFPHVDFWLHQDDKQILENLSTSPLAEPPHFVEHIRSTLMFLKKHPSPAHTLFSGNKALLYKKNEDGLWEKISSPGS", "UniProt Q92621": "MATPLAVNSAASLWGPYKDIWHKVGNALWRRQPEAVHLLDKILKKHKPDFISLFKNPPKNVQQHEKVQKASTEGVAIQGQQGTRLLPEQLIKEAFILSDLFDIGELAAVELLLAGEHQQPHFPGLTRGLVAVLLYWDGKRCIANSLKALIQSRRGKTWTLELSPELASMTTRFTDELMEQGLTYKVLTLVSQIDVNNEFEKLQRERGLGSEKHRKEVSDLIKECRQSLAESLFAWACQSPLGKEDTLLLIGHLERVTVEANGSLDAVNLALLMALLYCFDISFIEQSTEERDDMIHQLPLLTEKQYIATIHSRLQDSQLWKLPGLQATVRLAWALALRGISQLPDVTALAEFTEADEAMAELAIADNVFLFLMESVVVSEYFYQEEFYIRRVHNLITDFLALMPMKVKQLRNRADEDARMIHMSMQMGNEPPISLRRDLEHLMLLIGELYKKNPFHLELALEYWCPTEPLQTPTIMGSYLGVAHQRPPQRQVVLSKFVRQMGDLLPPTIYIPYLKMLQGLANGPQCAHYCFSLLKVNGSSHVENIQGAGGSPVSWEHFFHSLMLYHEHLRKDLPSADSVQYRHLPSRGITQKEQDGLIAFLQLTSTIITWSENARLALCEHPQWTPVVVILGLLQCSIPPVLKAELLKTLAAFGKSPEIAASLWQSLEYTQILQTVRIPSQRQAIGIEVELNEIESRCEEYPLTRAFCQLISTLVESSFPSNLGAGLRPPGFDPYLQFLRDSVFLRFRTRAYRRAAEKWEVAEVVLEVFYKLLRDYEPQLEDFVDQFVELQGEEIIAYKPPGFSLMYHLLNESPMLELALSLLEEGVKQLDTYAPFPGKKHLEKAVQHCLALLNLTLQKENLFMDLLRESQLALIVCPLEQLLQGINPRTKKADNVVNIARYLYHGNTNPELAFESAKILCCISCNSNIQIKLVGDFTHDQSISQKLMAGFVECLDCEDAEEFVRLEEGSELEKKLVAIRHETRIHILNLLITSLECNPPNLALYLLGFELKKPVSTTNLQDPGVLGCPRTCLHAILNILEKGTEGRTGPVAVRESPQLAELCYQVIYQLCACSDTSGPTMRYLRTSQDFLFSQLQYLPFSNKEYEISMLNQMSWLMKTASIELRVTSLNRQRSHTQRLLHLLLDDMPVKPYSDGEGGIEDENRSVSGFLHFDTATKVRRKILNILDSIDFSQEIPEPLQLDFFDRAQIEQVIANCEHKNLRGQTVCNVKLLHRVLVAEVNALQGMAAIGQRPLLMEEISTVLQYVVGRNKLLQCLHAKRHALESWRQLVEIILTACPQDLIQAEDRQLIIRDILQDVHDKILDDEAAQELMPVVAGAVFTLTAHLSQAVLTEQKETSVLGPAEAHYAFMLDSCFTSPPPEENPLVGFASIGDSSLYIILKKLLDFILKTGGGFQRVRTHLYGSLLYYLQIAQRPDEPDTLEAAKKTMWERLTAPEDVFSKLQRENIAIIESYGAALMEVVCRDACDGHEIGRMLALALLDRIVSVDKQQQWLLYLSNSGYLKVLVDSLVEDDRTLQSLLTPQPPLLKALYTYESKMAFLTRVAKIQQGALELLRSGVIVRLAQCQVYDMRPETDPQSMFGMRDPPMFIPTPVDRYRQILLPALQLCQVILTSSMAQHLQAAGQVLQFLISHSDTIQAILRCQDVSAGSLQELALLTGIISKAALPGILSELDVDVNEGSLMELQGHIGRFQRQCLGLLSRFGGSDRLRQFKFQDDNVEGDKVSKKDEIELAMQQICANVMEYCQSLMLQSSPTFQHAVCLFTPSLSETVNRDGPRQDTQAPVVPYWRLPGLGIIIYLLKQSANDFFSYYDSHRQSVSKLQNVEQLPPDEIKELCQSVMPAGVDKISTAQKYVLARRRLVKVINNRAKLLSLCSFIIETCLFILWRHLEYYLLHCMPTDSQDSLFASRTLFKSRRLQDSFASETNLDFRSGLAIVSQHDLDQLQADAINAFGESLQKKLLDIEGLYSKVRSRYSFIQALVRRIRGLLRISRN", "UniProt Q92643": "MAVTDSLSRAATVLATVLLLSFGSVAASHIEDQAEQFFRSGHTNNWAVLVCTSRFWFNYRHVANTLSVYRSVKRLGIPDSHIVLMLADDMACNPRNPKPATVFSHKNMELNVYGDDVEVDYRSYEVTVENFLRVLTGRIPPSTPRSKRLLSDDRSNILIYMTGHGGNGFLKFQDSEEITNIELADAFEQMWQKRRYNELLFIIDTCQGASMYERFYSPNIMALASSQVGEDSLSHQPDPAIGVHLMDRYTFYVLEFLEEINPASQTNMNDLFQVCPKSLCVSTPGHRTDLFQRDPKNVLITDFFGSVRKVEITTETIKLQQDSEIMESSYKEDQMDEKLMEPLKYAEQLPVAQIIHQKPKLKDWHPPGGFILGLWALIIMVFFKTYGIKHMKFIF", "UniProt Q93074, whole entry": "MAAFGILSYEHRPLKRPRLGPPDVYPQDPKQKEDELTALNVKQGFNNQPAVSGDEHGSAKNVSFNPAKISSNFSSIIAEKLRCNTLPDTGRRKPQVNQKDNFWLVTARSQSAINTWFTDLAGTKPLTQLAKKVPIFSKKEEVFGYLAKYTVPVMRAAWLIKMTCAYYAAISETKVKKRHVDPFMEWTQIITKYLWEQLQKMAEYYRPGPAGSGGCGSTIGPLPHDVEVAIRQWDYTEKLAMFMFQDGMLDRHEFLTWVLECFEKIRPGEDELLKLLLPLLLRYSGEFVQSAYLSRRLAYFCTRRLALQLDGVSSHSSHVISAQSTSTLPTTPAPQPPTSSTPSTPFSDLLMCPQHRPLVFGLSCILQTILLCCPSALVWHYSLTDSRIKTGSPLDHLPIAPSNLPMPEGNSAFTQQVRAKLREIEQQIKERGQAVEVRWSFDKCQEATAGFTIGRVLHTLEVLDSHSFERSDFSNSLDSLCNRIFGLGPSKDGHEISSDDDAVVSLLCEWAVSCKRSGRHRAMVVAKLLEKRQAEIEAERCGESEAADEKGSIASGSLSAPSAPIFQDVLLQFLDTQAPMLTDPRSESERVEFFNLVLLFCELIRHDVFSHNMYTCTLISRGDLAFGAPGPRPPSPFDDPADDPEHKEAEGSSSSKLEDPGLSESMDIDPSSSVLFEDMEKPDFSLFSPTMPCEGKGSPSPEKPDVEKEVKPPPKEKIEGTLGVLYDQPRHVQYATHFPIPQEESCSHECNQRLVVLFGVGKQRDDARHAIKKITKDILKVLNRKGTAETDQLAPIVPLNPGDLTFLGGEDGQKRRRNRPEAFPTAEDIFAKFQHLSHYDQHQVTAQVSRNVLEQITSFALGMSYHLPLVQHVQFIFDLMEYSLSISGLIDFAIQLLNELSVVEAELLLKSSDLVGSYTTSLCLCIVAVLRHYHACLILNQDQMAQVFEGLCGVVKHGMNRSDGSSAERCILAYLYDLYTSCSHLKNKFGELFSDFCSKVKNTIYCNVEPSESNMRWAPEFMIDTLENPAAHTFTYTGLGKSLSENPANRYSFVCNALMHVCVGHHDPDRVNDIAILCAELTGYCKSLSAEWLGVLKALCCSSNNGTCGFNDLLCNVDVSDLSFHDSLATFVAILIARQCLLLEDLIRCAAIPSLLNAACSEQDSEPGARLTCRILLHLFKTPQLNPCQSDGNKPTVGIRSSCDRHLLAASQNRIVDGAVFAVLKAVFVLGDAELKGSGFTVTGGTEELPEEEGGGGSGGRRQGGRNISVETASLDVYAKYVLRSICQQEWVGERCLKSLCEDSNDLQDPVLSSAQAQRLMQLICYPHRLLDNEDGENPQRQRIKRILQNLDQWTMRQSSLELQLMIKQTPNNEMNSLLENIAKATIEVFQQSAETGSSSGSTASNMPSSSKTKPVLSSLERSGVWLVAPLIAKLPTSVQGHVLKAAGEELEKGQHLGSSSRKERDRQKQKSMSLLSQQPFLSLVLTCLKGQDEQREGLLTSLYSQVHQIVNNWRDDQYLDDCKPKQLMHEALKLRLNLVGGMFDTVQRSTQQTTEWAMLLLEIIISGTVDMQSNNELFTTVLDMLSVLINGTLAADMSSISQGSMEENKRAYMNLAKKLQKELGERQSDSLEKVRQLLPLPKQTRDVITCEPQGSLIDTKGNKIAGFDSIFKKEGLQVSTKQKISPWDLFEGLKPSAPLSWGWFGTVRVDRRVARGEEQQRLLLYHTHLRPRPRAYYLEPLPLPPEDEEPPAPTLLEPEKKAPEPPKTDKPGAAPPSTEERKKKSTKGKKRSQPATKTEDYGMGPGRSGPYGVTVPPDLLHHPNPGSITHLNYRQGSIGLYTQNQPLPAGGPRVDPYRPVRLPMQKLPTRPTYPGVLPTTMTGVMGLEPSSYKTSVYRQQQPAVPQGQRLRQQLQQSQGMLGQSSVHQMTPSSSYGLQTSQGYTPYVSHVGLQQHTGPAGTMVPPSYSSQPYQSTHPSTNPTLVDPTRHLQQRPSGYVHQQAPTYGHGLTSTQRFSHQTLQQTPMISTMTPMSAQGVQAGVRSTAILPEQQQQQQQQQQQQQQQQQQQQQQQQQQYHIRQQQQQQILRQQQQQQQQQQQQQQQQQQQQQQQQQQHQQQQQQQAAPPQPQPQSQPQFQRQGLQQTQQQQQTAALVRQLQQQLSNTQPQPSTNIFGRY", "UniProt Q92820": "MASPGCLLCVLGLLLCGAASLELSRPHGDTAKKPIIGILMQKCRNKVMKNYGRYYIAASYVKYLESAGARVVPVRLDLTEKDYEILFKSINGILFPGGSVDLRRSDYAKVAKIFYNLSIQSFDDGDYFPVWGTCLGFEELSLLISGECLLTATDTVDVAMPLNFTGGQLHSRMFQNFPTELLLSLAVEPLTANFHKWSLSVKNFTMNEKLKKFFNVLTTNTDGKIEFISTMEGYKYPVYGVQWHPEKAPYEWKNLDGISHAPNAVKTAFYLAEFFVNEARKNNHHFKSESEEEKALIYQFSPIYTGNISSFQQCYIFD"},
  "source": "the supplement of paper PMC6411743",
  "note": "± gives the standard deviation of the averaged measurements. The list shows a part of the results, in another mix than the full data.",
  "data": [
    {"compound": "Nc1ncnc2c1ncn2[C@@H]1O[C@H](COP(=O)(O)OP(=O)(O)OP(=O)(O)O)[C@@H](O)[C@H]1O [adenosine triphosphate]", "experiment": "NP40-soluble protein abundance relative to vehicle (solubility fold change) (ratio); higher = more soluble protein in presence of ATP", "settings": "concentration: 6mM", "summary_of_the_method": "(§1)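 Values are fold changes against the detergent-processed vehicle, based on vsn-normalised intensities. Jurkat crude lysate was treated at eight concentrations from 0.1 to 10 mM (10 min at room temperature, then 3 min at 37 °C), solubilised with 0.8% NP40 and benzonase, ultracentrifuged and analysed by TMT-labelled LC-MS/MS over three independent experiments.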", "values": [
      {"target": "SPRYD4 (UniProt Q8WW59)", "NP40-soluble protein abundance": "0.952 ± 0.15"},
      {"target": "UniProt Q8TCY9", "NP40-soluble protein abundance": "0.998 ± 0.1"},
      {"target": "ZKSCAN4 (UniProt Q969J2)", "NP40-soluble protein abundance": "1.03 ± 0.034"},
      {"target": "RTF1 (UniProt Q92541)", "NP40-soluble protein abundance": "0.939 ± 0.025"},
      {"target": "UniProt Q92845 and related entries", "NP40-soluble protein abundance": "1.05 ± 0.091"},
      {"target": "UniProt Q93015 and related entries", "NP40-soluble protein abundance": "0.958 ± 0.0097"},
      {"target": "ERGIC1 (UniProt Q969X5)", "NP40-soluble protein abundance": "0.949 ± 0.1"},
      {"target": "PPP1R13L (UniProt Q8WUF5)", "NP40-soluble protein abundance": "0.993 ± 0.075"},
      {"target": "DPF3 (UniProt Q92784)", "NP40-soluble protein abundance": "1.09 ± 0.12"},
      {"target": "MRPL24 (UniProt Q96A35)", "NP40-soluble protein abundance": "0.841 ± 0.25"},
      {"target": "UniProt Q92766 and related entries", "NP40-soluble protein abundance": "1.16 ± 0.055"},
      {"target": "C18orf32 (UniProt Q8TCD1)", "NP40-soluble protein abundance": "0.999 ± 0.058"},
      {"target": "ZC3H15 (UniProt Q8WU90)", "NP40-soluble protein abundance": "0.996 ± 0.013"},
      {"target": "ITFG2 (UniProt Q969R8)", "NP40-soluble protein abundance": "0.926 ± 0.09"},
      {"target": "UniProt Q92622 and related entries", "NP40-soluble protein abundance": "0.935 ± 0.083"},
      {"target": "UniProt Q8TBX8 and related entries", "NP40-soluble protein abundance": "1.02 ± 0.079"},
      {"target": "ERCC4 (UniProt Q92889)", "NP40-soluble protein abundance": "0.997 ± 0.084"},
      {"target": "UniProt Q8TCZ2 and related entries", "NP40-soluble protein abundance": "0.835 ± 0.03"},
      {"target": "UniProt Q969P0 and related entries", "NP40-soluble protein abundance": "0.974 ± 0.027"},
      {"target": "STYX (UniProt Q8WUJ0)", "NP40-soluble protein abundance": "1.08 ± 0.12"},
      {"target": "NTAN1 (UniProt Q96AB6)", "NP40-soluble protein abundance": "1.07 ± 0.1"},
      {"target": "PSPC1 (UniProt Q8WXF1)", "NP40-soluble protein abundance": "1.05 ± 0.013"},
      {"target": "UniProt Q8WVM7 and related entries", "NP40-soluble protein abundance": "0.95 ± 0.085"},
      {"target": "UniProt Q8TEX9 and related entries", "NP40-soluble protein abundance": "0.864 ± 0.086"},
      {"target": "UBXN4 (UniProt Q92575)", "NP40-soluble protein abundance": "0.973 ± 0.021"},
      {"target": "NSUN6 (UniProt Q8TEA1)", "NP40-soluble protein abundance": "0.958 ± 0.091"},
      {"target": "UniProt Q96AE7-2|Q96AE7", "NP40-soluble protein abundance": "1.05 ± 0.14"},
      {"target": "NUP205 (UniProt Q92621)", "NP40-soluble protein abundance": "0.976 ± 0.11"},
      {"target": "AIDA (UniProt Q96BJ3)", "NP40-soluble protein abundance": "1.03 ± 0.015"},
      {"target": "UniProt Q8WWK9 and related entries", "NP40-soluble protein abundance": "1.08 ± 0.044"},
      {"target": "PIGK (UniProt Q92643)", "NP40-soluble protein abundance": "1.02 ± 0.07"},
      {"target": "UniProt Q92974 and related entries", "NP40-soluble protein abundance": "1.03 ± 0.066"},
      {"target": "UniProt Q969G3 and related entries", "NP40-soluble protein abundance": "1.05 ± 0.18"},
      {"target": "UniProt Q93074 and related entries", "NP40-soluble protein abundance": "1.05 ± 0.11"},
      {"target": "UniProt Q8TE02 and related entries", "NP40-soluble protein abundance": "0.85 ± 0.12"},
      {"target": "GGH (UniProt Q92820)", "NP40-soluble protein abundance": "0.938 ± 0.058"}
    ]},
    {"compound": "Nc1ncnc2c1ncn2[C@@H]1O[C@H](COP(=O)(O)OP(=O)(O)OP(=O)(O)O)[C@@H](O)[C@H]1O [adenosine triphosphate]", "experiment": "NP40-soluble protein abundance relative to vehicle (solubility fold change) (ratio); higher = more soluble protein in presence of ATP", "settings": "concentration: 8mM", "summary_of_the_method": "as §1", "values": [
      {"target": "SPRYD4 (UniProt Q8WW59)", "NP40-soluble protein abundance": "0.982 ± 0.034"},
      {"target": "UniProt Q8TCY9", "NP40-soluble protein abundance": "0.974 ± 0.071"},
      {"target": "ZKSCAN4 (UniProt Q969J2)", "NP40-soluble protein abundance": "1.13 ± 0.097"},
      {"target": "RTF1 (UniProt Q92541)", "NP40-soluble protein abundance": "0.889 ± 0.02"},
      {"target": "UniProt Q92845 and related entries", "NP40-soluble protein abundance": "0.997 ± 0.037"},
      {"target": "UniProt Q93015 and related entries", "NP40-soluble protein abundance": "0.852 ± 0.067"},
      {"target": "ERGIC1 (UniProt Q969X5)", "NP40-soluble protein abundance": "1.03 ± 0.05"},
      {"target": "PPP1R13L (UniProt Q8WUF5)", "NP40-soluble protein abundance": "0.908 ± 0.014"},
      {"target": "DPF3 (UniProt Q92784)", "NP40-soluble protein abundance": "1.06 ± 0.12"},
      {"target": "MRPL24 (UniProt Q96A35)", "NP40-soluble protein abundance": "0.879 ± 0.14"},
      {"target": "UniProt Q92766 and related entries", "NP40-soluble protein abundance": "1.09 ± 0.054"},
      {"target": "C18orf32 (UniProt Q8TCD1)", "NP40-soluble protein abundance": "0.835 ± 0.034"},
      {"target": "ZC3H15 (UniProt Q8WU90)", "NP40-soluble protein abundance": "0.959 ± 0.026"},
      {"target": "ITFG2 (UniProt Q969R8)", "NP40-soluble protein abundance": "0.946 ± 0.035"},
      {"target": "UniProt Q92622 and related entries", "NP40-soluble protein abundance": "0.917 ± 0.079"},
      {"target": "UniProt Q8TBX8 and related entries", "NP40-soluble protein abundance": "1.08 ± 0.05"},
      {"target": "ERCC4 (UniProt Q92889)", "NP40-soluble protein abundance": "1.04 ± 0.029"},
      {"target": "UniProt Q8TCZ2 and related entries", "NP40-soluble protein abundance": "0.886 ± 0.059"},
      {"target": "UniProt Q969P0 and related entries", "NP40-soluble protein abundance": "0.9583 ± 0.0042"},
      {"target": "STYX (UniProt Q8WUJ0)", "NP40-soluble protein abundance": "0.962 ± 0.08"},
      {"target": "NTAN1 (UniProt Q96AB6)", "NP40-soluble protein abundance": "1.14 ± 0.061"},
      {"target": "PSPC1 (UniProt Q8WXF1)", "NP40-soluble protein abundance": "1.043 ± 0.0083"},
      {"target": "UniProt Q8WVM7 and related entries", "NP40-soluble protein abundance": "1.05 ± 0.052"},
      {"target": "UniProt Q8TEX9 and related entries", "NP40-soluble protein abundance": "0.913 ± 0.023"},
      {"target": "UBXN4 (UniProt Q92575)", "NP40-soluble protein abundance": "0.958 ± 0.013"},
      {"target": "NSUN6 (UniProt Q8TEA1)", "NP40-soluble protein abundance": "0.979 ± 0.045"},
      {"target": "UniProt Q96AE7-2|Q96AE7", "NP40-soluble protein abundance": "1.02 ± 0.15"},
      {"target": "NUP205 (UniProt Q92621)", "NP40-soluble protein abundance": "1.12 ± 0.095"},
      {"target": "AIDA (UniProt Q96BJ3)", "NP40-soluble protein abundance": "0.983 ± 0.028"},
      {"target": "UniProt Q8WWK9 and related entries", "NP40-soluble protein abundance": "1.04 ± 0.032"},
      {"target": "PIGK (UniProt Q92643)", "NP40-soluble protein abundance": "1.03 ± 0.18"},
      {"target": "UniProt Q92974 and related entries", "NP40-soluble protein abundance": "1.06 ± 0.048"},
      {"target": "UniProt Q969G3 and related entries", "NP40-soluble protein abundance": "1.01 ± 0.1"},
      {"target": "UniProt Q93074 and related entries", "NP40-soluble protein abundance": "1.05 ± 0.056"},
      {"target": "UniProt Q8TE02 and related entries", "NP40-soluble protein abundance": "1.03 ± 0.15"},
      {"target": "GGH (UniProt Q92820)", "NP40-soluble protein abundance": "0.917 ± 0.029"}
    ]}
  ]
}
